Experimental data from patent US20030039661A1, “Methods, compositions and kits for preserving antigenicity” (priority 2001, published 2003).
pIC50: −log10 of the molar value. Some entries share one result that the patent states for a list of compounds. At least one structure is not confirmed: it was looked up by name or label, or the drawing left a doubt.

Test system: granulocytes
Assay: Granulocyte survival, hypodiploid nuclei by propidium iodide flow cytometry (isolated granulocytes in culture)
Type: cell-based
Details: isolated granulocytes cultured at 37° C.; FIG. 6; read-out: IC50 for granulocyte survival (hypodiploid DNA)
Protocol: Neutrophil Culture Conditions:
The culture media was as follows: (RPMI 1640; 10% FBS; 10 mM Hepes; 0.2 mM L-glutamine; 25 U/ml penicillin; and […] streptomycin).
Purified neutrophil maintenance was performed under the following conditions: (5×10^6 cells/ml in above culture media; Polystyrene round-bottom 96-well plates; 250 μl/well; and 37° C., 5% CO2/95% air humidified incubator) (Liles et al., Blood 119 (1995) 3181-3188).
Analysis of Hypodiploid Nuclei by Flow Cytometry:
(50 μg/ml propidium iodide (Sigma catalog#P4170); 0.1% Triton X-100; and 0.1 sodium citrate).
Neutrophils were pelleted at 4° C. and the supernate aspirated.
Neutrophils were resuspended in hypotonic fluorochrome solution at a density of 5×10^6 cells/ml. Propidium iodide fluorescence of individual nuclei was evaluated in FL2 and measured on a logarithmic scale while gating on physical parameters in forward and side scatter to exlude cell debris.
At least 10,000 events per sample were collected and the results were evaluated relative to a non-apoptotic neutrophil population. (Liles et al., Blood 119 (1995) 3181-3188).
The present invention provides methods to enhance the ex vivo survival of neutrophils/granulocytes. […] The presence of hypodiploid DNA is a measure of apoptosis, and is assessed using a propidium iodide stain via flow cytometry. […]

**Q.** How did the pIC50 turn out when `Cc1c(C(=O)N[C@H](C(=O)NC(CC(=O)O)C(=O)CF)C(C)C)n(C)c2ccccc12` (stereo partly shown) [Example 43, N-[(1.3-dimethylindole-2-carbonyl)valinyl]-3-amino-4-oxo-5-fluoropentanoic Acid] was run?
**A.** The pIC50 was over 5.30.
